Results are given in words; binding and its absence hold for the method and conditions named. Some binding calls cover weakened binding; strength is not graded here.
Target: Sinorhizobium meliloti SmeI (SMa1993) (Sinorhizobium meliloti)
Test: self-association inferred from Sephadex 200 sizing column elution

binding: binds
B1: Sinorhizobium meliloti SmeI (SMa1993) (enzyme)
chain: MTINSHSWRTLMVEKRSVLCFGDSLTWGWIPVKGSSPTLRYPYEQRWTGAMAARLGDGYHIIEEGLSARTTSLDDPNDARLNGSTYLPMALASHLPLDLVIIMLGTNDTKSYFHRTPYEIANGMGKLVGQVLTCAGGVGTPYPAPKVLVVAPPPLAPMPDPWFEGMFGGGYEKSKELSGLYKALADFMKVEFFAAGDCISTDGIDGIHLSAETNIRLGHAIADKVAALF
